Laboratory results: PubChem BioAssay AID686938 (Drosophila RNAi Screening Center, 2013)

Test: 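Knock-downs reducing store-operated calcium influx in Drosophila cells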 (primary screen)
Cells: Drosophila S2R+ cells
Reagent: long dsRNA against Drosophila genes, about 0.25 µg dsRNA per well, roughly 10,000 cells
Timing: 5 days of knock-down before the calcium assay
Conditions: thapsigargin (SERCA pump blocker) to empty calcium stores; entry signal taken 4 min after adding it
Measurement: 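Per-well fluo-4 fluorescence in two replicates, unnormalised, measured in resting cells and 4 min after store depletion by the SERCA blocker thapsigargin; ratio of the two present in few wells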
Reading the numbers: calcium entry signal: higher = stronger calcium signal after store depletion; entry to resting ratio: higher = more calcium entry relative to resting level; resting calcium signal: higher = higher resting calcium signal
Units: calcium entry signal in fluorescence units; resting calcium signal in fluorescence units
Call rule: 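Hit if the duplicate-averaged plate z-score for entry over resting signal is under −3; wells with weak total dye signal (Fmax z < −2) or more than 5 off-targets removed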
Calls: active = strongly reduced calcium entry; inactive = no strong reduction
The screen tested about 23,000 reagents; this is a random part of those that have a named target and a result. Over the whole deposit, 75 (0.33%) got an active call. 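Raw plate signals without normalisation; calls rest on plate z-scores that were not deposited; ratio present for only 364 wells.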 Names joined by + are all predicted targets of the reagent. No sequences are given here. The record does not give: the dose of the treatment.

| calcium entry signal, replicate 1 | calcium entry signal, replicate 2 | entry to resting ratio | resting calcium signal, replicate 1 | resting calcium signal, replicate 2 | Outcome | target gene | DRSC id |
| --- | --- | --- | --- | --- | --- | --- | --- |
| 3.40e7 | 3.02e7 | – | 1.83e7 | 1.59e7 | inactive | CG34171 (GeneID 5740474) | DRSC01637 |
| 2.43e7 | 2.58e7 | – | 1.71e7 | 1.45e7 | inactive | CG15098 (GeneID 37174) | DRSC06527 |
| 2.50e7 | 2.02e7 | – | 1.04e7 | 1.01e7 | inactive | blow (GeneID 35694) | DRSC07586 |
| 3.94e7 | 5.27e7 | – | 1.90e7 | 2.26e7 | inactive | Mco3 (GeneID 43134) | DRSC15926 |
| 4.76e7 | 3.66e7 | – | 2.19e7 | 1.60e7 | inactive | cd (GeneID 42681) | DRSC16157 |
| 2.69e7 | 3.20e7 | – | 1.45e7 | 1.39e7 | inactive | sing + Axs | DRSC19333 |
| 3.39e7 | 3.75e7 | – | 1.54e7 | 1.68e7 | inactive | CG15210 (GeneID 50323) | DRSC19656 |
| 3.75e7 | 4.02e7 | – | 1.68e7 | 1.98e7 | inactive | Vm26Aa (GeneID 33829) | DRSC03472 |
| 4.04e7 | 5.27e7 | – | 1.72e7 | 2.14e7 | inactive | CG5112 (GeneID 43083) | DRSC15718 |
| 3.81e7 | – | – | 1.99e7 | – | inactive | CG8677 (GeneID 35397) | DRSC03107 |
| 3.37e7 | 2.90e7 | – | 1.71e7 | 1.40e7 | inactive | cutlet (GeneID 44637) | DRSC00284 |
| 4.09e7 | 4.99e7 | 2.3 | 1.78e7 | 2.09e7 | inactive | CG11398 (GeneID 31070) | DRSC18625 |
| 3.84e7 | 4.42e7 | – | 1.98e7 | 2.14e7 | inactive | NitFhit (GeneID 38029) | DRSC08680 |
| 5.45e7 | 4.54e7 | – | 2.55e7 | 2.10e7 | inactive | RhoGAP18B (GeneID 32898) | DRSC19763 |
| 5.23e7 | 5.16e7 | – | 2.58e7 | 2.17e7 | inactive | RhoGAP18B (GeneID 32898) | DRSC20047 |
| 5.13e7 | 4.70e7 | – | 2.66e7 | 2.13e7 | inactive | RhoGAP18B (GeneID 32898) | DRSC20048 |
| 4.82e7 | 4.90e7 | – | 2.23e7 | 2.00e7 | inactive | RhoGAP18B (GeneID 32898) | DRSC20049 |
| 4.53e7 | 2.97e7 | – | 2.32e7 | 1.56e7 | inactive | dpr11 (GeneID 40800) | DRSC12561 |
| 3.92e7 | 3.18e7 | – | 2.11e7 | 1.51e7 | inactive | dpr11 (GeneID 40800) | DRSC12562 |
| 4.80e7 | 3.33e7 | – | 2.18e7 | 1.64e7 | inactive | dpr11 (GeneID 40800) | DRSC12563 |
| 3.12e7 | 3.87e7 | – | 1.66e7 | 1.68e7 | inactive | Or49b (GeneID 36413) | DRSC07494 |
| 3.80e7 | 4.60e7 | – | 1.60e7 | 1.96e7 | inactive | Pak (GeneID 44039) | DRSC12602 |
| 5.48e7 | 3.22e7 | – | 2.61e7 | 1.39e7 | inactive | Pak (GeneID 44039) | DRSC23302 |
| 3.52e7 | 5.72e7 | – | 1.64e7 | 2.59e7 | inactive | CG30284 (GeneID 246527) | DRSC22150 |

Reformatted: entries from further up.
CG34171 (GeneID 5740474) [DRSC01637] | calcium entry signal, replicate 1 = 3.40e7; calcium entry signal, replicate 2 = 3.02e7; resting calcium signal, replicate 1 = 1.83e7; resting calcium signal, replicate 2 = 1.59e7; Outcome = inactive
CG15098 (GeneID 37174) [DRSC06527] | calcium entry signal, replicate 1 = 2.43e7; calcium entry signal, replicate 2 = 2.58e7; resting calcium signal, replicate 1 = 1.71e7; resting calcium signal, replicate 2 = 1.45e7; Outcome = inactive
